Amino acid sequences for entries named in this document (tags omitted). A change or cut given only in a name is not applied to a line headed by its entry.
UniProt Q92551: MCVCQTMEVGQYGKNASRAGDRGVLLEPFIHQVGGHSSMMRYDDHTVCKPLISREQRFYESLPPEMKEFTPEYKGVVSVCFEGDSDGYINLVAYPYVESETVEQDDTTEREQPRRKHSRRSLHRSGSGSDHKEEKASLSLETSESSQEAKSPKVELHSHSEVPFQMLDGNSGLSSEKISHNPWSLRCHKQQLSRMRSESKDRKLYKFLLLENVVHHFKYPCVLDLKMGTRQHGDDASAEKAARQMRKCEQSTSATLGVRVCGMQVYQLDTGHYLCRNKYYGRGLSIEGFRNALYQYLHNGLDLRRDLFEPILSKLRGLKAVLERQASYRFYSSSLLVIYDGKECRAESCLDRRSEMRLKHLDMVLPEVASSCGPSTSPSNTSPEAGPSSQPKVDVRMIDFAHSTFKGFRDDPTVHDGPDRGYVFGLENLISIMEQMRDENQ

According to publication PMC5706701, “Development of a homogenous high-throughput assay for inositol hexakisphosphate kinase 1 activity” (PLoS ONE, 2017):

Biological target: T1, Human IP6K1 (Homo sapiens, UniProt Q92551)
T1 construct: GST (N, cleaved yes); made in house; host or cells: C43 E. coli, pGEX-6P-2
Experiment: IP6K1 high-throughput screen of the Sigma LOPAC (ADP-Glo Max, single point);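 also: final compound concentration 10µM in 5% DMSO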
Type: biochemical

Q: COc1ccc(CC(C)NCC(O)c2ccc(O)c(NC=O)c2)cc1 (centres unmarked) [Formoterol] was tested. Which “Raw Signal” value did it give?
A: 54961

Q: And the Z-score?
A: -0.04184
